PMC4277633 (Iranian Journal of Pharmaceutical Research : IJPR, 2015)

Each compound was assayed on Human Umbilical Vein Endothelial (HUVEC) cell line.

Structure (SMILES) | SI (IC 50 /MIC) [µg/mL]
Nc1ccccc1 [Compound 1a] | 4.15
N#Cc1ccccc1N [Compound 1b] | 9.683
c1ccc2[nH]ccc2c1 [Compound 1c, indole] | 12.2272
Nc1ccc2c(c1)Cc1ccccc1-2 [Compound 1e, 2-fluorenamine] | 61.99
Nc1cccc2c1C(=O)c1ccccc1C2=O [Compound 1f, 1-aminoanthraquinone] | 1.814
Nc1ccc(Nc2ccccc2)c2c1C(=O)c1ccccc1C2=O [Compound 1g, 1-amino-4-anilino-9,10-anthraquinone] | >88.33
O=C1c2ccccc2C(=O)N1CCO [Compound 1h, N-(2-Hydroxyethyl)-phthalimide] | 1.683
NCCCn1ccnc1 [Compound 1i] | 3.524
O=C(O)/C=C/c1cnc[nH]1 [Compound 1j] | 2.374
Cc1cc(C(=O)O)no1 [Compound 2a, 5-methylisoxazole-3-carboxylic acid] | 8.743
O=C(O)c1cc2ccccc2oc1=O [Compound 2b, coumarin-3-carboxylic acid] | 29.58
